Record: PubChem BioAssay AID686938 (Drosophila RNAi Screening Center, 2013)
Screen: 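Looking for CRAC channel components and the factors controlling them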 (primary screen). Cells: Drosophila S2R+ cells. Reagents: long dsRNA against Drosophila genes, about 0.25 µg dsRNA per well, roughly 10,000 cells. Duration: 5 days of knock-down before the calcium assay. Conditions: thapsigargin (SERCA pump blocker) to empty calcium stores; entry signal taken 4 min after adding it. Detection: 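Duplicate raw fluo-4 intensities per well from a plate reader, at rest and four minutes after thapsigargin emptied calcium stores; entry-to-rest ratio filled for only some wells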. Direction: calcium entry signal: higher = stronger calcium signal after store depletion; entry to resting ratio: higher = more calcium entry relative to resting level; resting calcium signal: higher = higher resting calcium signal. Rule for the call: 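Called when the plate z-score of the entry-to-rest ratio, mean of duplicates, falls below −3; wells with low overall dye signal (Fmax z below −2) or more than five off-targets excluded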. Calls: active = strongly reduced calcium entry; inactive = no strong reduction.
In all, the deposit lists about 23,000 reagents; shown is a random part of those that have a named target and a result. Over the whole deposit, 75 (0.33%) are marked active. 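Raw plate signals without normalisation; calls rest on plate z-scores that were not deposited; ratio present for only 364 wells.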 Reagents against one gene are numbered here. Not stated in the record: the dose of the treatment.

Blm (GeneID 41366) gave calcium entry signal, replicate 1 (fluorescence units) = 3.34e7; calcium entry signal, replicate 2 (fluorescence units) = 3.94e7; resting calcium signal, replicate 1 (fluorescence units) = 1.34e7; resting calcium signal, replicate 2 (fluorescence units) = 1.79e7; inactive.
For Tsp42El (GeneID 35622) the deposit lists calcium entry signal, replicate 1 (fluorescence units) = 3.77e7; resting calcium signal, replicate 1 (fluorescence units) = 1.88e7; inactive.
Lint-1 (GeneID 32055) scored calcium entry signal, replicate 1 (fluorescence units) = 3.20e7; calcium entry signal, replicate 2 (fluorescence units) = 3.95e7; resting calcium signal, replicate 1 (fluorescence units) = 1.45e7; resting calcium signal, replicate 2 (fluorescence units) = 1.65e7; inactive.
For Rbp (GeneID 41880) #1, the entry reads calcium entry signal, replicate 1 (fluorescence units) = 9.93e6; calcium entry signal, replicate 2 (fluorescence units) = 1.25e7; resting calcium signal, replicate 1 (fluorescence units) = 6.87e6; resting calcium signal, replicate 2 (fluorescence units) = 4.27e7; inactive.
Against Rbp (GeneID 41880) #2 the deposit lists calcium entry signal, replicate 1 (fluorescence units) = 2.20e7; calcium entry signal, replicate 2 (fluorescence units) = 3.51e7; resting calcium signal, replicate 1 (fluorescence units) = 1.00e7; resting calcium signal, replicate 2 (fluorescence units) = 4.41e7; inactive.
Depletion of Ir94f (GeneID 318632) resulted in: calcium entry signal, replicate 1 (fluorescence units) = 2.55e7; calcium entry signal, replicate 2 (fluorescence units) = 3.05e7; resting calcium signal, replicate 1 (fluorescence units) = 1.43e7; resting calcium signal, replicate 2 (fluorescence units) = 1.46e7; inactive.
With knock-down of Doc2 (GeneID 39038) the results were calcium entry signal, replicate 1 (fluorescence units) = 3.42e7; calcium entry signal, replicate 2 (fluorescence units) = 2.76e7; resting calcium signal, replicate 1 (fluorescence units) = 1.86e7; resting calcium signal, replicate 2 (fluorescence units) = 1.31e7; inactive.

2 entries from above, reformatted.
Target gene	reagent no.	calcium entry signal, replicate 1 (fluorescence units)	calcium entry signal, replicate 2 (fluorescence units)	entry to resting ratio	resting calcium signal, replicate 1 (fluorescence units)	resting calcium signal, replicate 2 (fluorescence units)	call
Lint-1 (GeneID 32055)	1	3.20e7	3.95e7		1.45e7	1.65e7	inactive
Rbp (GeneID 41880)	1	9.93e6	1.25e7		6.87e6	4.27e7	inactive

The listing continues:
Knock-down of Phlpp (GeneID 35178) #1 gave: calcium entry signal, replicate 1 (fluorescence units) = 4.06e7; calcium entry signal, replicate 2 (fluorescence units) = 4.42e7; resting calcium signal, replicate 1 (fluorescence units) = 2.09e7; resting calcium signal, replicate 2 (fluorescence units) = 1.94e7; inactive.
Silencing of Phlpp (GeneID 35178) #2 resulted in: calcium entry signal, replicate 1 (fluorescence units) = 3.55e7; calcium entry signal, replicate 2 (fluorescence units) = 3.72e7; resting calcium signal, replicate 1 (fluorescence units) = 1.80e7; resting calcium signal, replicate 2 (fluorescence units) = 1.87e7; inactive.
fd59A (GeneID 37631) gave calcium entry signal, replicate 1 (fluorescence units) = 3.74e7; resting calcium signal, replicate 1 (fluorescence units) = 1.87e7; inactive.
HP1c (GeneID 42696) gave calcium entry signal, replicate 1 (fluorescence units) = 4.33e7; calcium entry signal, replicate 2 (fluorescence units) = 5.57e7; resting calcium signal, replicate 1 (fluorescence units) = 1.93e7; resting calcium signal, replicate 2 (fluorescence units) = 2.71e7; inactive.
Arp6 (GeneID 32514) showed calcium entry signal, replicate 1 (fluorescence units) = 4.27e7; calcium entry signal, replicate 2 (fluorescence units) = 4.27e7; resting calcium signal, replicate 1 (fluorescence units) = 2.13e7; resting calcium signal, replicate 2 (fluorescence units) = 1.98e7; inactive.
Against CG14797 (GeneID 31123) the deposit lists calcium entry signal, replicate 1 (fluorescence units) = 3.45e7; calcium entry signal, replicate 2 (fluorescence units) = 4.22e7; entry to resting ratio 2.1; resting calcium signal, replicate 1 (fluorescence units) = 1.63e7; resting calcium signal, replicate 2 (fluorescence units) = 1.61e7; inactive.
Against Obp56f (GeneID 246668) the deposit lists calcium entry signal, replicate 1 (fluorescence units) = 2.48e7; calcium entry signal, replicate 2 (fluorescence units) = 3.59e7; resting calcium signal, replicate 1 (fluorescence units) = 1.26e7; resting calcium signal, replicate 2 (fluorescence units) = 1.89e7; inactive.
After knock-down of CG10799 (GeneID 36472), the record shows calcium entry signal, replicate 1 (fluorescence units) = 2.62e7; calcium entry signal, replicate 2 (fluorescence units) = 4.42e7; resting calcium signal, replicate 1 (fluorescence units) = 1.35e7; resting calcium signal, replicate 2 (fluorescence units) = 1.81e7; inactive.
santa-maria (GeneID 34024) #1 scored calcium entry signal, replicate 1 (fluorescence units) = 3.69e7; calcium entry signal, replicate 2 (fluorescence units) = 4.51e7; resting calcium signal, replicate 1 (fluorescence units) = 1.86e7; resting calcium signal, replicate 2 (fluorescence units) = 1.91e7; inactive.
santa-maria (GeneID 34024) #2 gave calcium entry signal, replicate 1 (fluorescence units) = 3.75e7; resting calcium signal, replicate 1 (fluorescence units) = 2.33e7; inactive.
Silencing of Cpr97Ea (GeneID 43258) came out at: calcium entry signal, replicate 1 (fluorescence units) = 3.23e7; calcium entry signal, replicate 2 (fluorescence units) = 5.42e7; resting calcium signal, replicate 1 (fluorescence units) = 1.70e7; resting calcium signal, replicate 2 (fluorescence units) = 2.35e7; inactive.
For CG4679 (GeneID 36466), the values are calcium entry signal, replicate 1 (fluorescence units) = 2.93e7; calcium entry signal, replicate 2 (fluorescence units) = 4.87e7; resting calcium signal, replicate 1 (fluorescence units) = 1.46e7; resting calcium signal, replicate 2 (fluorescence units) = 1.92e7; inactive.
Cht10 (GeneID 3355116) #1 gave calcium entry signal, replicate 1 (fluorescence units) = 4.59e7; calcium entry signal, replicate 2 (fluorescence units) = 4.75e7; resting calcium signal, replicate 1 (fluorescence units) = 2.12e7; resting calcium signal, replicate 2 (fluorescence units) = 2.02e7; inactive.
Knock-down of Cht10 (GeneID 3355116) #2 resulted in: calcium entry signal, replicate 1 (fluorescence units) = 3.55e7; resting calcium signal, replicate 1 (fluorescence units) = 1.78e7; inactive.
Knock-down of Cht10 (GeneID 3355116) #3 gave: calcium entry signal, replicate 1 (fluorescence units) = 4.16e7; calcium entry signal, replicate 2 (fluorescence units) = 5.03e7; resting calcium signal, replicate 1 (fluorescence units) = 2.04e7; resting calcium signal, replicate 2 (fluorescence units) = 2.15e7; inactive.
